Test results taken from article PMC6400558 (2019).
Results are given in words; binding and its absence hold for the method and conditions named. In cells and extracts the contact can be indirect. A result given as binding can be weak or reduced; the word gives no strength. For some of these results: Where a sequence is shown, tags or fusion partners need not be part of it.

Assays:
[1] = target: dynein intermediate chain (DIC) (human (endogenous in HEK293T)); assay: co-IP; endogenous proteins; HEK293T lysates in TAP lysis buffer (20 mM Tris-HCl pH 7.4, 150 mM NaCl, 0.5% NP-40) with antibody on protein-A/G beads, 3 h, 4°C; cells asynchronous or synchronized (G2, prometaphase, metaphase/anaphase, cytokinesis), with control or other siRNAs or Hook2 plasmids; immunoblot
[2] = target: dynein intermediate chain (DIC) (human (endogenous in HEK293T)); assay: co-IP; lysates of HEK293T cells transfected with HA-tagged Hook2 (WT, Q143A, I150A; also siRNA-resistant forms in Hook2 siRNA-treated cells); IP with anti-DIC or anti-p150^glued, immunoblot anti-HA

Binder	binding [1]	binding [2]
Hook2 (endogenous) (protein, UniProt Q96ED9 1-719) MSVDKAELCGSLLTWLQTFHVPSPCASPQDLSSGLAVAYVLNQIDPSWFNEAWLQGISEDPGPNWKLKVSNLKMVLRSLVEYSQDVLAHPVSEEHLPDVSLIGEFSDPAELGKLLQLVLGCAISCEKKQDHIQRIMTLEESVQHVVMEAIQELMTKDTPDSLSPETYGNFDSQSRRYYFLSEEAEEGDELQQRCLDLERQLMLLSEEKQSLAQENAGLRERMGRPEGEGTPGLTAKKLLLLQSQLEQLQEENFRLESGREDERLRCAELEREVAELQHRNQALTSLAQEAQALKDEMDELRQSSERAGQLEATLTSCRRRLGELRELRRQVRQLEERNAGHAERTRQLEDELRRAGSLRAQLEAQRRQVQELQGQRQEEAMKAEKWLFECRNLEEKYESVTKEKERLLAERDSLREANEELRCAQLQPRGLTQADPSLDPTSTPVDNLAAEILPAELRETLLRLQLENKRLCRQEAADRERQEELQRHLEDANRARHGLETQHRLNQQQLSELRAQVEDLQKALQEQGGKTEDAISILLKRKLEEHLQKLHEADLELQRKREYIEELEPPTDSSTARRIEELQHNLQKKDADLRAMEERYRRYVDKARMVMQTMEPKQRPAAGAPPELHSLRTQLRERDVRIRHLEMDFEKSRSQREQEEKLLISAWYNMGMALQQRAGEERAPAHAQSFLAQQRLATNSRRGPLGRLASLNLRPTDKH	binds	
HA-tagged Hook2 WT (protein, UniProt Q96ED9 1-719) MSVDKAELCGSLLTWLQTFHVPSPCASPQDLSSGLAVAYVLNQIDPSWFNEAWLQGISEDPGPNWKLKVSNLKMVLRSLVEYSQDVLAHPVSEEHLPDVSLIGEFSDPAELGKLLQLVLGCAISCEKKQDHIQRIMTLEESVQHVVMEAIQELMTKDTPDSLSPETYGNFDSQSRRYYFLSEEAEEGDELQQRCLDLERQLMLLSEEKQSLAQENAGLRERMGRPEGEGTPGLTAKKLLLLQSQLEQLQEENFRLESGREDERLRCAELEREVAELQHRNQALTSLAQEAQALKDEMDELRQSSERAGQLEATLTSCRRRLGELRELRRQVRQLEERNAGHAERTRQLEDELRRAGSLRAQLEAQRRQVQELQGQRQEEAMKAEKWLFECRNLEEKYESVTKEKERLLAERDSLREANEELRCAQLQPRGLTQADPSLDPTSTPVDNLAAEILPAELRETLLRLQLENKRLCRQEAADRERQEELQRHLEDANRARHGLETQHRLNQQQLSELRAQVEDLQKALQEQGGKTEDAISILLKRKLEEHLQKLHEADLELQRKREYIEELEPPTDSSTARRIEELQHNLQKKDADLRAMEERYRRYVDKARMVMQTMEPKQRPAAGAPPELHSLRTQLRERDVRIRHLEMDFEKSRSQREQEEKLLISAWYNMGMALQQRAGEERAPAHAQSFLAQQRLATNSRRGPLGRLASLNLRPTDKH		binds
HA-tagged Hook2 Q143A (protein, UniProt Q96ED9 1-719) MSVDKAELCGSLLTWLQTFHVPSPCASPQDLSSGLAVAYVLNQIDPSWFNEAWLQGISEDPGPNWKLKVSNLKMVLRSLVEYSQDVLAHPVSEEHLPDVSLIGEFSDPAELGKLLQLVLGCAISCEKKQDHIQRIMTLEESVAHVVMEAIQELMTKDTPDSLSPETYGNFDSQSRRYYFLSEEAEEGDELQQRCLDLERQLMLLSEEKQSLAQENAGLRERMGRPEGEGTPGLTAKKLLLLQSQLEQLQEENFRLESGREDERLRCAELEREVAELQHRNQALTSLAQEAQALKDEMDELRQSSERAGQLEATLTSCRRRLGELRELRRQVRQLEERNAGHAERTRQLEDELRRAGSLRAQLEAQRRQVQELQGQRQEEAMKAEKWLFECRNLEEKYESVTKEKERLLAERDSLREANEELRCAQLQPRGLTQADPSLDPTSTPVDNLAAEILPAELRETLLRLQLENKRLCRQEAADRERQEELQRHLEDANRARHGLETQHRLNQQQLSELRAQVEDLQKALQEQGGKTEDAISILLKRKLEEHLQKLHEADLELQRKREYIEELEPPTDSSTARRIEELQHNLQKKDADLRAMEERYRRYVDKARMVMQTMEPKQRPAAGAPPELHSLRTQLRERDVRIRHLEMDFEKSRSQREQEEKLLISAWYNMGMALQQRAGEERAPAHAQSFLAQQRLATNSRRGPLGRLASLNLRPTDKH		no binding
HA-tagged Hook2 I150A (protein, UniProt Q96ED9 1-719) MSVDKAELCGSLLTWLQTFHVPSPCASPQDLSSGLAVAYVLNQIDPSWFNEAWLQGISEDPGPNWKLKVSNLKMVLRSLVEYSQDVLAHPVSEEHLPDVSLIGEFSDPAELGKLLQLVLGCAISCEKKQDHIQRIMTLEESVQHVVMEAAQELMTKDTPDSLSPETYGNFDSQSRRYYFLSEEAEEGDELQQRCLDLERQLMLLSEEKQSLAQENAGLRERMGRPEGEGTPGLTAKKLLLLQSQLEQLQEENFRLESGREDERLRCAELEREVAELQHRNQALTSLAQEAQALKDEMDELRQSSERAGQLEATLTSCRRRLGELRELRRQVRQLEERNAGHAERTRQLEDELRRAGSLRAQLEAQRRQVQELQGQRQEEAMKAEKWLFECRNLEEKYESVTKEKERLLAERDSLREANEELRCAQLQPRGLTQADPSLDPTSTPVDNLAAEILPAELRETLLRLQLENKRLCRQEAADRERQEELQRHLEDANRARHGLETQHRLNQQQLSELRAQVEDLQKALQEQGGKTEDAISILLKRKLEEHLQKLHEADLELQRKREYIEELEPPTDSSTARRIEELQHNLQKKDADLRAMEERYRRYVDKARMVMQTMEPKQRPAAGAPPELHSLRTQLRERDVRIRHLEMDFEKSRSQREQEEKLLISAWYNMGMALQQRAGEERAPAHAQSFLAQQRLATNSRRGPLGRLASLNLRPTDKH		no binding
